Source: US20050250106
Results from cells or extracts need not show a direct contact.

Test system: NF-kB p50 (p50/p65 heterodimer)
Assay: EMSA
Details: lysate of TNF-alpha stimulated HeLa/293 cells; 20 mM Tris pH 8, 200 mM KCl, 10 mM MgCl2, RT 15 min (binding buffer stock); protein in an extract; label: 5'-32P

## GCCATGGGGGGATCCCCGAAGTCC (double strand) [NF-kB EMSA probe]
  binding result: binds
